Inconclusive results, whose numbers are uncertain, are shown with a selection of clear calls. The source made the active and inactive calls.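 The calls were made as follows: active = signal-decreasing dose-response curve whose fitted half-maximal concentration is at or below twice the highest valid tested dose; inconclusive = flat fit at 30 to 70% signal loss, or poor fit; inactive = the rest.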
Assay: cell viability loss after compound exposure – 24 h, luminescence, cherry-picked samples, cytotoxicity control for PDI inhibitor project, dose response (AID 624285)
Settings: NIH3T3/HeLa viability, CellTiter-Glo ATP luminescence; at 35 µM (top of the series)

Row | Compound | activity change, negative = cytotoxicity
1 | COC(=O)CC1OCC=C2CN3CCC45C6=CC(=O)C(=O)C([N+](=O)[O-])=C6NC4C1C2CC35 (configuration not stated) | inactive: -13%
2 | Cc1n[nH]c(=O)c2c(NC(=O)CSc3nnnn3-c3ccc(O)cc3)oc(C)c12 | inconclusive: -30.3%

From PubChem BioAssay AID624285 (Broad Institute, 2012)
